According to paper PMC10465003, “The AAA-ATPase Yta4/ATAD1 interacts with the mitochondrial divisome to inhibit mitochondrial fission” (PLOS Biology, 2023):
These are yes or no findings as the source states them, for the method shown. For some of these results: Binding seen in cells or lysates may run through a third protein. Some results given as binding are weak or reduced against the parent protein; the word gives no strength. Where a sequence is shown, tags or fusion partners need not be part of it. Each block holds one binder with its values, some of them ahead of it.

How the values were obtained:
[1] = target: T1, GFP-Fis1 (Schizosaccharomyces pombe) (UniProt Q9USZ8); assay: co-IP; S. pombe cell lysate in TBS with 0.5% Triton X-100; antibodies against GFP or Dnm1 on Dynabeads protein G, 4°C, 2 h; western blot with antibodies against Myc, GFP and Dnm1
T1 sequence: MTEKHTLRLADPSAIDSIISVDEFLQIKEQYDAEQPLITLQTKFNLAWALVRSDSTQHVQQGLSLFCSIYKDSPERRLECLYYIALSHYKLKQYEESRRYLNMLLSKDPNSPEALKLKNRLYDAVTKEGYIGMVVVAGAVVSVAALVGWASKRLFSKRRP

[2] = target: T2, GFP-Mdv1 (Schizosaccharomyces pombe) (UniProt Q9P7I3); assay: as above
T2 sequence: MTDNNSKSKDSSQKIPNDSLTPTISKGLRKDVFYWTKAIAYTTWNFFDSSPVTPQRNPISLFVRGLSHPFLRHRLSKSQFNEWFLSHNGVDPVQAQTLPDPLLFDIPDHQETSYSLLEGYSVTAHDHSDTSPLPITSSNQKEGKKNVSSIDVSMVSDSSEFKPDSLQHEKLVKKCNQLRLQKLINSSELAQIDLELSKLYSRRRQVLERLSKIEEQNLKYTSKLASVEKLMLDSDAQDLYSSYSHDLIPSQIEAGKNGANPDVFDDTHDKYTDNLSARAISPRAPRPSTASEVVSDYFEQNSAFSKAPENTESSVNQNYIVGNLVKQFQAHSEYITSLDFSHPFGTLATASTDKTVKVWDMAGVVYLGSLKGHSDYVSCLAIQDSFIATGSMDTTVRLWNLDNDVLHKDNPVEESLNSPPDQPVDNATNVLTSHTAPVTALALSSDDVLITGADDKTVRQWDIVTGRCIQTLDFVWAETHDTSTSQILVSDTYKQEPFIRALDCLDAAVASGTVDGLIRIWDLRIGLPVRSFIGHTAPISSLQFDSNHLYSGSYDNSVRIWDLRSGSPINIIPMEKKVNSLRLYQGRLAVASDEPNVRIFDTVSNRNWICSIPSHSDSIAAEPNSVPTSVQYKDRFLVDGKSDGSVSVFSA

[3] = target: T3, endogenous Dnm1 (Schizosaccharomyces pombe (endogenous in S. pombe cells)) (UniProt Q09748); assay: as above
T3 sequence: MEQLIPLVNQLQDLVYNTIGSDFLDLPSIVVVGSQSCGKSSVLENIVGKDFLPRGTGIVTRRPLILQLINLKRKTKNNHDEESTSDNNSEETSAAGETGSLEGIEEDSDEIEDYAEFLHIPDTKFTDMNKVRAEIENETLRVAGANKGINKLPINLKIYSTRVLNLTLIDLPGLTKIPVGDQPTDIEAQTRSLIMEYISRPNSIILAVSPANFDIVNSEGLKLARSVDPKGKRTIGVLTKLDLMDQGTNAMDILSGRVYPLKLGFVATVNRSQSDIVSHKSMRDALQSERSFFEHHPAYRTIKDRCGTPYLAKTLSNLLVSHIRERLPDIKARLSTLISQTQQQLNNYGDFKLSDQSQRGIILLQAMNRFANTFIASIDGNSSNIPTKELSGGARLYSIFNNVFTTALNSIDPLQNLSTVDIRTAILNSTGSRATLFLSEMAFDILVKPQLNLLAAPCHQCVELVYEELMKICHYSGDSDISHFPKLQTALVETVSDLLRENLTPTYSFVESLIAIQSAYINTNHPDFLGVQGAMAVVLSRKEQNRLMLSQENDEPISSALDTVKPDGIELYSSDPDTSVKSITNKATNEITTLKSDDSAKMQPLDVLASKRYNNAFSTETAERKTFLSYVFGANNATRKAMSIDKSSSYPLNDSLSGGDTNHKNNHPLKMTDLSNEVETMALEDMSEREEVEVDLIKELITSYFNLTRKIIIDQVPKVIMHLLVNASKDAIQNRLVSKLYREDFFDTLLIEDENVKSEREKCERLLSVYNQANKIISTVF

[4] = target: T4, Fis1(a.a. 1–128)-GST (Schizosaccharomyces pombe) (UniProt Q9USZ8); assay: co-purification after co-expression; Fis1(a.a. 1–128)-GST and His-Mdv1(a.a. 1–249) co-expressed in E. coli BL21, purified with glutathione resins in phosphate buffer (150 mM NaCl, 10 mM imidazole, 0.1% Triton X-100)
T4 sequence: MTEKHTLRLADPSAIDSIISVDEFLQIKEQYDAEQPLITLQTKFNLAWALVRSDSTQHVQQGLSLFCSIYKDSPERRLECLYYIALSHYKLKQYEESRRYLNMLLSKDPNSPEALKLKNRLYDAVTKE

- binding [1]: binds
- binding [2]: binds
B1: endogenous Dnm1 (protein, UniProt Q09748 1-781)
chain: MEQLIPLVNQLQDLVYNTIGSDFLDLPSIVVVGSQSCGKSSVLENIVGKDFLPRGTGIVTRRPLILQLINLKRKTKNNHDEESTSDNNSEETSAAGETGSLEGIEEDSDEIEDYAEFLHIPDTKFTDMNKVRAEIENETLRVAGANKGINKLPINLKIYSTRVLNLTLIDLPGLTKIPVGDQPTDIEAQTRSLIMEYISRPNSIILAVSPANFDIVNSEGLKLARSVDPKGKRTIGVLTKLDLMDQGTNAMDILSGRVYPLKLGFVATVNRSQSDIVSHKSMRDALQSERSFFEHHPAYRTIKDRCGTPYLAKTLSNLLVSHIRERLPDIKARLSTLISQTQQQLNNYGDFKLSDQSQRGIILLQAMNRFANTFIASIDGNSSNIPTKELSGGARLYSIFNNVFTTALNSIDPLQNLSTVDIRTAILNSTGSRATLFLSEMAFDILVKPQLNLLAAPCHQCVELVYEELMKICHYSGDSDISHFPKLQTALVETVSDLLRENLTPTYSFVESLIAIQSAYINTNHPDFLGVQGAMAVVLSRKEQNRLMLSQENDEPISSALDTVKPDGIELYSSDPDTSVKSITNKATNEITTLKSDDSAKMQPLDVLASKRYNNAFSTETAERKTFLSYVFGANNATRKAMSIDKSSSYPLNDSLSGGDTNHKNNHPLKMTDLSNEVETMALEDMSEREEVEVDLIKELITSYFNLTRKIIIDQVPKVIMHLLVNASKDAIQNRLVSKLYREDFFDTLLIEDENVKSEREKCERLLSVYNQANKIISTVF

- binding [3]: binds
B2: GFP-Fis1 (protein, UniProt Q9USZ8 1-160)
chain: MTEKHTLRLADPSAIDSIISVDEFLQIKEQYDAEQPLITLQTKFNLAWALVRSDSTQHVQQGLSLFCSIYKDSPERRLECLYYIALSHYKLKQYEESRRYLNMLLSKDPNSPEALKLKNRLYDAVTKEGYIGMVVVAGAVVSVAALVGWASKRLFSKRRP

- binding [4]: binds
B3: His-Mdv1(1–249) (domain or fragment, UniProt Q9P7I3 1-249)
chain: MTDNNSKSKDSSQKIPNDSLTPTISKGLRKDVFYWTKAIAYTTWNFFDSSPVTPQRNPISLFVRGLSHPFLRHRLSKSQFNEWFLSHNGVDPVQAQTLPDPLLFDIPDHQETSYSLLEGYSVTAHDHSDTSPLPITSSNQKEGKKNVSSIDVSMVSDSSEFKPDSLQHEKLVKKCNQLRLQKLINSSELAQIDLELSKLYSRRRQVLERLSKIEEQNLKYTSKLASVEKLMLDSDAQDLYSSYSHDLIP
